# About 25 (2%) of roughly 1,600 compounds were called active. About 7% were inconclusive and are not listed. Calls come from the whole dose curve; as a rule, active = well fitted inhibition curve with a large enough effect; inconclusive = small, poorly fitted or top-dose-only effect, or effect the other way; inactive = no such curve, though single readings can be large or run the other way. The list shows a part of the results.
# Sequences of proteins named here, by UniProt entry; tags and fusion partners are left off.
# UniProt Q01196, whole entry, looked up: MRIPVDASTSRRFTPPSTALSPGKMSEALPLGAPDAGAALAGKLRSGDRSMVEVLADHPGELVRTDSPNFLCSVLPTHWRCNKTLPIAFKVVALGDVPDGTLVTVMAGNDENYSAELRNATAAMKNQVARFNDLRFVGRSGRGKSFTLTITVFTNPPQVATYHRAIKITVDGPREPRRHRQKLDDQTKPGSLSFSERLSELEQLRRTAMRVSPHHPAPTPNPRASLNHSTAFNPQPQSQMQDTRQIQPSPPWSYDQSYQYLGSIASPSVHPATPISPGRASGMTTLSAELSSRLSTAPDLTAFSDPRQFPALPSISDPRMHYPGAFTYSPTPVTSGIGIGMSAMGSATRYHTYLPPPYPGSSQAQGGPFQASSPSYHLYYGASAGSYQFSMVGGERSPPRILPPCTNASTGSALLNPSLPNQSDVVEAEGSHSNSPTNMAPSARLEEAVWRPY
# UniProt Q13951, whole entry, looked up: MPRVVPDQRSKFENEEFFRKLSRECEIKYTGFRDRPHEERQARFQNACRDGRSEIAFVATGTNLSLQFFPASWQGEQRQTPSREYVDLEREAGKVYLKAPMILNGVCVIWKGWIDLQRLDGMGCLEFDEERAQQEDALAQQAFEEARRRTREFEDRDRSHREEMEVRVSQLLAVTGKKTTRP
# Molecular target: Runt-related transcription factor 1 (Homo sapiens) + Core-binding factor subunit beta (Homo sapiens) (UniProt Q01196+Q13951)
# Experiment: qHTS Assay for Compounds Blocking the Interaction Between CBF-beta and RUNX1 for the Treatment of Acute Myeloid Leukemia: Hit Validation with Orthogonal Assay
# Conditions: CBFbeta-RUNX1 binding orthogonal assay, biochemical; at 41 µM (top of the series) unless noted
# Text: NIH Chemical Genomics Center [NCGC]
# NIH Molecular Libraries Probe Production centers Network [MLPCN]
# Assay Submitter (PI): Paul Liu
# Core Binding Factor (CBF) abnormalities are associated with 20-25% of all acute myeloid leukemias (AML), of which 5-10% are further sub classified as acute myelomonocytic leukemia with eosinophilia, also known as M4Eo in the FAB classification scheme. This subtype of leukemia is usually associated with chromosome 16 inversion (p13:q22). Chromosome 16 inversion results in formation of the fusion oncogene CBFB-MYH11, which encodes the fusion protein CBF-beta-SMMHC.
# It has been hypothesized that the interference of CBF-beta and RUNX1 binding could have therapeutic implications for patients with CBF mediated leukemias. We developed a CBF-beta and RUNX1 binding assay in AlphaScreenTM format and optimized it for high throughput screening to search for inhibitors. The goal of this project is to screen MLPCN's compound collection (MLSMR) for identifying the inhibitors of the interaction between CBF-beta and RUNX1 proteins as research probes. If these probes work well in the animal models, the ultimate goal of this project is to development a new drug treatment for this disease.
# This assay can not be used to assess how apparent inhibitors interfere with protein binding, and whether inhibitors specifically bind to either protein. Disruption of this protein-protein interaction, through any mechanism, is the intended target activity.
# The present data set was run to confirm the activity of hits from the primary screen using an orthogonal assay technology for measuring protein-protein interaction disruption.
# A TR-FRET (time resolved fluorescence resonance energy transfer) assay was performed using the same assay buffer, protein concentrations and incubation times as described previously in the AlphaScreen assay, except that terbium (Tb+) labeled anti-his-antibody and XL665 linked streptavidin were used to capture the binding signal. The Tb+ labeled anti-his-antibody captures His(6)-CBF and XL665 linked streptavidin binds to biotin-RUNX1. The binding of RUNX1 to CBFbrings Tb+ and XL665 to proximity resulting in a TR-FRET signal. Briefly, in a white 384-well plate, 10 µl/well of mixture of biotin-RUNX1 and His(6)-CBFwere incubated with 10 µl/well buffer (positive control) or 10 µl/well compounds (negative control) for 20 min followed by an addition of 10 µl/well of Tb+ labeled anti-his(6)-antibody and XL665 linked streptavidin. After 90 min of incubation in the dark, the assay plate was measured in the Envision plate reader using TR-FRET detection mode. For the 1536-well plate format, 3 µl/well mixture of biotin-RUNX1 and His(6)-CBF (30 nM per protein) was incubated with 23 nl/well compound (dissolved in 100% DMSO) or the equivalent DMSO concentration (positive control) for 30 min followed by the addition of 1 µl/well of 0.44 ng Tb+ labeled anti-his(6)-antibody and 5 nM streptavodin-XL665. After 90 min of incubation, the assay plate was measured in the Envision plate reader.
# The TR-FRET assay for detecting interaction between HIV-I Tat and […] was similarly performed with the recombinant full-length HIV-I Tat CLADE B and HIV-I Tat Biotin conjugated proteins supplied by Diatheva (Fano, Italy). Briefly, the His-CBF and Biotin-RUNX1 complex at a working concentration of 83.3 nM per protein were pre-incubated in assay buffer for 10 minutes on ice. Then HIV-I Tat or unlabeled CBF were added to reach final concentrations (Supplementary Figure 4b) and incubated for 5 minutes. Finally anti-His antibody and streptavidin-XL665 at a final concentration of 2.2 ng and 5 nM, respectively, were added to the plate, which was incubated for 1 hr prior to reading on the PerkinElmer Envision plate reader.
# Keywords: MLSMR, MLPCN, NIH Roadmap, qHTS, NCGC, Core binding factor, CBF, CBF-beta, Acute myeloid leukemia
# % is set by controls: 0 for no effect and ±100 for the full control effect.
row,Compound,"activity change, negative = inhibition"
1,O=c1[nH]c(=S)[nH]c(O)c1/C=N/N1CCOCC1,inactive: -7.93%
2,CC(=O)CC(c1ccccc1[N+](=O)[O-])c1c(O)c2ccccc2oc1=O (configuration not stated),inactive: -0.954%
3,CCCCc1ccc(C(=O)O)nc1,inactive: -1.88% [at 82.4 µM]
4,CNC(=O)O/N=C(\C)Cc1nnn(-c2cc(C)on2)n1,inactive: 1.39%
5,CC1CN=C(Nc2ccc(F)c(Cl)c2)S1 (configuration not stated),inactive: 6.88%
6,O=c1c2ccccc2nc(Cc2cccc([N+](=O)[O-])c2)n1-c1ccc(O)cc1,inactive: 8.14%
7,O=C(O)COc1ccccc1/C=C1\C(=O)NC(=O)N(CCC2=CCCCC2)C1=O,inactive: 2.04%
8,Cc1ccc(-n2c(O)c(C=N)c(=O)n(-c3ccc(C)cc3)c2=O)cc1,inactive: 24.2%
9,Cc1cc(OC(=O)N(C)C)nc(-c2ccc(C)c(Cl)c2)n1,inactive: 7.35%
10,CN1C(=O)C(=Cc2cccnc2)C(=O)N(C)C1=O,inactive: -0.869%
11,COc1cc(CN=Cc2c(O)n(C(C)(C)C)c(=O)[nH]c2=O)cc(OC)c1,inactive: 4.78%
12,CCC(C)n1c(O)c(C=NCCc2ccccc2)c(=O)[nH]c1=S (configuration not stated),inactive: -10.2%
13,CCC(=NCc1cc(OC)cc(OC)c1)c1c(O)n(C2CCCCC2)c(=O)[nH]c1=O,inactive: 0.905%
14,CNC(=O)Oc1ccc(N(C)C)cc1C(C)C,inactive: -13.7%
15,CCC(=NCc1cccnc1)c1c(O)n(-c2ccccc2C)c(=O)[nH]c1=O,inactive: -2.88%
16,O=C1/C(=C\c2cccnc2)N2CCC1CC2,inactive: -8.53%
17,CCC(=Nc1cccc(C(F)(F)F)c1)c1c(O)n(C)c(=O)n(C)c1=O,inactive: 5.85%
18,Cn1c(O)c(C=NCCN2CCN(C(=O)Nc3ccccc3)CC2)c(=O)n(C)c1=O,inactive: -3.66%
19,C[C@H]1CC[C@H]2NCCN[C@H]2C1,inactive: -18.8%

row,Compound,"activity change, negative = inhibition"
1,Cn1c(O)c(C(=Nc2ccc(F)cc2)c2ccccc2)c(=O)n(C)c1=O,inactive: 15.3%
2,CCCC(=O)c1cc(CP(=O)(OCC)OCC)oc1C,inactive: -5.04%
3,CCCC(=O)c1ccc(CP(=O)(OCC)OCC)o1,inactive: 8.34%
4,CCC(=NCc1ccco1)c1c(O)n(-c2ccccc2C)c(=O)[nH]c1=O,inactive: 11%
5,CCOC(=O)C(O)(c1ccc(NC(=O)c2ccc(Cl)c(Cl)c2)cc1)C(F)(F)F (configuration not stated),inactive: 3.11%
6,COCc1cc(OC(=O)N(C)C)nc(-c2ccccc2)n1,inactive: -2.72%
7,CC(C)[C@@]1(NC(=O)[C@H]2CC3c4cccc5[nH]cc(c45)C[C@H]3N(C)C2)O[C@@]2(O)C3CCCN3C(=O)[C@@H](Cc3ccccc3)N2C1=O (some centres not stated),inactive: 9.43%
8,CCN1CCN(c2nc([N+](=O)[O-])nn2C)CC1,inactive: 39.9%
9,CCn1c(O)c(C=NCCN2CCOCC2)c(=O)[nH]c1=S,inactive: -1.84%
10,CCC1(C(=O)c2ccc(C)cc2)C2c3ccccc3OC(=O)C21C(=O)O (configuration not stated),inactive: -8.33%
11,CC(C)OP(=O)(Oc1ccc(C(O)C(Cl)(Cl)Cl)cc1)OC(C)C (configuration not stated),inactive: 7.68%
12,O=c1[nH]c(=S)n(-c2ccc(F)cc2)c(O)c1/C=N/N1CCOCC1,inactive: 10.3%
13,CCCCn1c(O)c(C(CC)=NCCCn2ccnc2)c(=O)[nH]c1=O,inactive: 11.3%
14,CCOC(=O)[C@]1(C#N)[C@@H]2C=CC(C(N)=O)=CN2[C@@H](C(N)=O)[C@@H]1c1ccc(F)cc1,inactive: 14.7%
15,CC(C)(C)n1cc(C(=O)c2ccccc2)cc1-c1ccccc1,inactive: -1.88%
16,CCCCn1c(O)c(/C=C2/C=CC=N2)c(=O)[nH]c1=O,inactive: 29.1%
17,Cc1cc(C(=O)Nc2ccccc2)nn1C(C)(C)C,inactive: 11%
18,Cc1nc(SCc2c(Cl)cccc2Cl)nc(OC(=O)N(C)C)c1C,inactive: 1.97%
19,CC(=O)Nc1ccc([As](=O)(O)c2ccc([N+](=O)[O-])cc2)cc1,inactive: 27.5%

row,Compound,"activity change, negative = inhibition"
1,CCCCCCn1c(O)c(/C=N/N2CCCCCC2)c(=O)[nH]c1=O,inactive: 5.46%
2,Cc1cc(OC(=O)N(C)C)nc2c1c(C)nn2C,inactive: -8.88%
3,CCCCn1c(O)c(/C=N/N2CCOCC2)c(=O)[nH]c1=S,inactive: -13.6%
4,COc1cccc(C(=O)N2CCC3(CC2)OCCO3)c1,inactive: -2.62%
5,CCN1CCc2ccccc2C1,inactive: -11.9%
6,CCCCCCn1c(O)c(C=Nc2ccccc2N2CCOCC2)c(=O)[nH]c1=S,inactive: 9.02%
7,Cc1onc(-c2c(Cl)cccc2Cl)c1C(=O)Nc1ccc2c(C(F)(F)F)cc(=O)oc2c1,inactive: 1.55%
8,COCc1cc(OC(=O)N(C)C)nc(-c2ccc(C)c(Cl)c2)n1,inactive: -5.63%
9,COC1C(OC(=O)c2ccc(C)[nH]2)C(O)C(Oc2ccc3c(O)c(NC(=O)c4ccc(O)c(CC=C(C)C)c4)c(=O)oc3c2Cl)OC1(C)C (configuration not stated),inactive: 4.43%
10,C=CCn1c(O)c(C(C)=Nc2ccc3c(c2)CCC3)c(=O)[nH]c1=O,inactive: 1.26%
11,O=c1[nH]c(=S)[nH]c(O)c1N=Nc1cccc(S(=O)(=O)N2CCOCC2)c1,inactive: 56%
12,Cn1c(O)c(C(=Nc2ccc(F)cc2)c2ccccc2Cl)c(=O)n(C)c1=O,inactive: -7.4%
13,Cc1cccc(N2C(=O)NC(=O)/C(=C\c3ccc(N4CCOCC4)cc3)C2=O)c1,inactive: 11.1%
14,O=c1[nH]c(=S)n(-c2ccccc2)c(O)c1C=NCc1ccccn1,inactive: 1.8%
15,CCOP(=O)(Cc1cc(C(C)=O)c(C)o1)OCC,inactive: -5.54%
16,CN1CCN(c2nc(N)cc(=O)[nH]2)CC1,inactive: -9.35%
17,C=CCn1c(O)c(C(C)=NCC2CCCO2)c(=O)[nH]c1=O (configuration not stated),inactive: -9.91%
18,N=Cc1c(O)n(-c2ccccc2)c(=O)n(-c2ccccc2)c1=O,inactive: -0.232%
19,COP(=O)(Cc1ccc(C#N)o1)OC,inactive: -13.1%

# Some values from the results shown.
# activity change, negative = inhibition, `CCN1CCc2ccccc2C1` reads inactive: -11.9%
# activity change, negative = inhibition, `CCCCCCn1c(O)c(C=Nc2ccccc2N2CCOCC2)c(=O)[nH]c1=S` reads inactive: 9.02%
# activity change, negative = inhibition, `C=CCn1c(O)c(C(C)=Nc2ccc3c(c2)CCC3)c(=O)[nH]c1=O` reads inactive: 1.26%
# activity change, negative = inhibition, `COc1cccc(C(=O)N2CCC3(CC2)OCCO3)c1` reads inactive: -2.62%

# — PubChem BioAssay AID504375 (National Center for Advancing Translational Sciences (NCATS), 2011)
